No constants are given. Whether binding was seen depends on the method and setting. Some binding calls cover weakened binding; strength is not graded here.
Biological target: T1, Cse2 subunit of Cascade (Escherichia coli K12) (UniProt P76632)
T1 sequence: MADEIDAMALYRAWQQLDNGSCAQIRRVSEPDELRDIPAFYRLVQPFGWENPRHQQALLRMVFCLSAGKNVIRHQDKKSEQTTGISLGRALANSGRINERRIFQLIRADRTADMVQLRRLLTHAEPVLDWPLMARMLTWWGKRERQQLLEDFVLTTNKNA
Assay: co-purification of the complex, SDS-PAGE; Cascade co-expressed in E. coli BL21 (DE3) with g8 crRNA (WT, G-1T, C-2A or C-3G), purified as in ref. 29; 12% SDS-PAGE, Coomassie Blue

binding: binds
B1: Cse1 subunit of Cascade (protein, UniProt Q46901 1-502)
chain: MNLLIDNWIPVRPRNGGKVQIINLQSLYCSRDQWRLSLPRDDMELAALALLVCIGQIIAPAKDDVEFRHRIMNPLTEDEFQQLIAPWIDMFYLNHAEHPFMQTKGVKANDVTPMEKLLAGVSGATNCAFVNQPGQGEALCGGCTAIALFNQANQAPGFGGGFKSGLRGGTPVTTFVRGIDLRSTVLLNVLTLPRLQKQFPNESHTENQPTWIKPIKSNESIPASSIGFVRGLFWQPAHIELCDPIGIGKCSCCGQESNLRYTGFLKEKFTFTVNGLWPHPHSPCLVTVKKGEVEEKFLAFTTSAPSWTQISRVVVDKIIQNENGNRVAAVVNQFRNIAPQSPLELIMGGYRNNQASILERRHDVLMFNQGWQQYGNVINEIVTVGLGYKTALRKALYTFAEGFKNKDFKGAGVSVHETAERHFYRQSELLIPDVLANVNFSQADEVIADLRDKLHQLCEMLFNQSVAPYAHHPKLISTLALARATLYKHLRELKPQGGPSNG

Reference: publication PMC3764190, “Type I-E CRISPR-Cas Systems Discriminate Target from Non-Target DNA through Base Pairing-Independent PAM Recognition”
